Each structure is given as a SMILES string. The list shows a part of the results. Shown are side measurements of this screen, not its main read-out; they come without a call. The list favours compounds with an active or inconclusive main result. Potencies come from curve fits of mixed quality, noted in brackets.

This experiment can be described thus: qHTS Assay to Find Inhibitors of Chronic Active B-Cell Receptor Signaling. Conditions: ABC-DLBCL IkBa-CBG/CBR reporter, luminescence ratio (green luciferase fused to IkBa over red control in TMD8 lymphoma cells), 4 h. A digest of the protocol: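 TMD8 human ABC-DLBCL cells with doxycycline-inducible IκBα–green luciferase fusion and unfused red luciferase, in 0.5% FBS medium; compounds up to 46 uM, 4 h at 37C. Green/red luminescence ratio, filter-overlap corrected, fitted to concentration-response curves.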

Setting [1] is: measured here: CBR red luminescence, cell number.
[2] abbreviates: measured here: IkBa-CBG green luminescence.

For the compound `COc1ccc(CNC(=O)C2CCN(S(=O)(=O)N3CCC(C)CC3)CC2)c(OC)c1`, the AC50 (in general, the midpoint of the concentration-response curve, whichever way the signal moves) under setting [1] was 0.708 µM [rising, partial curve, poor fit].
Same read-out and setting: as for `Cc1ccc(CNC(=O)CCC(=O)c2cccs2)cc1`, the figure is 29.1 µM [rising, single point]; as for `CC(Sc1nncn1C)C(=O)Nc1nnc(-c2ccccc2)s1` (stereo unspecified), 29.1 µM [falling, single point].
As for `CCCCN1C(=O)c2ccc(C(=O)NC3(C)CCS(=O)(=O)C3)cc2C1=O` (stereo unspecified), the AC50 under setting [1] is 2.91 µM [rising, partial curve, poor fit].
Take `CCNc1ccc(C(=O)OC(C(=O)NC(N)=O)C(C)C)cc1[N+](=O)[O-]` (stereo unspecified): the AC50 under setting [1] is 15.8 µM [rising, partial curve, poor fit].
On the same count and under the same terms, the figure for `O=C(Nc1ccccc1)c1ccc(Br)c(S(=O)(=O)Nc2ccccn2)c1` is 0.112 µM [falling, full curve, poor fit]; for `COc1ccc2cc(C(=O)N3CCc4ccccc43)[nH]c2c1` it is 5.62 µM [falling, partial curve]; for `CCOc1ccc(NC(=O)CN(C)S(=O)(=O)c2ccc(-c3ccc(=O)[nH]n3)s2)cc1` it is 6.31 µM [rising, full curve, poor fit].
On the same count and under the same terms, as for `O=C1C(c2ccncc2)=C(O)c2ccccc21`, the figure is 20.6 µM [falling, partial curve]; as for `O=C(N/N=C/c1ccc(N2CCOCC2)cc1)c1ccc(NS(=O)(=O)c2cccs2)cc1`, 17.8 µM [falling, single point]; as for `O=C(CN1C(=O)NC2(CCCC2)C1=O)OCc1ccc(F)cc1`, 5.17 µM [rising, full curve, poor fit].
As to `Cc1ccc(C(=O)OCC(=O)Nc2cccc(Cl)c2C)c(O)c1`, under setting [1], the AC50 was 14.1 µM [falling, partial curve, poor fit].
As to `COC(=O)COc1ccc(S(=O)(=O)NCc2ccncc2)cc1`, under setting [1], the AC50 is 6.51 µM [rising, single point].
As for `CCCOC(=O)/C(C)=N\NC(=O)c1ccco1`, under setting [1], the AC50 was 29.1 µM [falling, single point].
Turning to `O=[N+]([O-])c1ccc(O)c(NC(=S)Nc2ccccc2)c1`, the AC50 under setting [1] is 4.61 µM [rising, partial curve, poor fit].
In the case of `Cc1csc(SCC(=O)NCc2cccc(Cl)c2)n1`, the AC50 under setting [1] was 35.5 µM [rising, single point].
With `COc1cccc(/C=C/C(=O)NNC(=O)c2ccncc2)c1`, the AC50 under setting [1] is 25.9 µM [falling, single point].
In the case of `CCn1cc(C(=O)NCC(OC)OC)c(=O)c2cc(S(=O)(=O)N3CCC(C)CC3)ccc21`, the AC50 under setting [1] is 0.112 µM [rising, full curve, poor fit].
In the case of `O=C(O)/C=C/c1cccc(NC(=O)c2ccccc2)c1`, the AC50 under setting [1] was 14.1 µM [falling, single point].
On to `CCCN(CCC)C(=O)CC(c1ccccc1)c1cc(Br)ccc1O` (stereo unspecified), for which the AC50 under setting [1] is 14.6 µM [falling, partial curve, poor fit].
Turning to `COc1ccc(Cc2nnc(NC(=O)CSc3ccccc3)s2)cc1OC`, the concentration at half-maximal activity (AC50) under setting [1] is 1.03 µM [falling, partial curve, poor fit].
For `CC1(C(=O)O)CCC(C(=O)Nc2ccccc2O)C1(C)C` (stereo unspecified), the AC50 under setting [2] is 25.9 µM [rising, partial curve, poor fit].
Take `O=C(CCN1C(=O)/C(=C/c2ccccc2Cl)SC1=S)NC1=NCCS1`: the AC50 under setting [1] is 7.08 µM [falling, partial curve].
For the compound `CC1Cc2ccccc2N1C(=O)COC(=O)c1n[nH]c(=O)c2ccccc12` (stereo unspecified), the AC50 under setting [1] is 2.59 µM [falling, partial curve, poor fit].
In the case of `COc1ccc([N+](=O)[O-])c(S(=O)(=O)c2ccc(Cl)cc2)n1`, the AC50 reads like this: under setting [1], 11.2 µM [falling, partial curve]; under setting [2], 35.5 µM [rising, partial curve, poor fit].
With `CCOC(=O)c1c(CC(C)C)csc1NC(=O)C(C)C`, the AC50 under setting [1] is 5.62 µM [falling, single point].
As to `Cc1ccc2c(c1)NC(=O)C(CC(=O)NCCCN1CCN(c3cc(C)ccc3C)CC1)O2` (stereo unspecified), the AC50 under setting [1] is 6.51 µM [falling, single point].
Take `COc1ccc2[nH]c3c(c2c1)CCN1C(=O)C(CC(=O)NCCCn2ccnc2)C[C@H](C(=O)N2CCCCC2)[C@@]31C` (stereo partly specified): under setting [1], the AC50 was 23.1 µM [rising, partial curve, poor fit].
Still for that read-out and setting: the figure for `COc1cc(CN2CCC(C(=O)N3CCC(C)CC3)CC2)cc(Br)c1O` is 5.01 µM [rising, partial curve, poor fit].
The same measure, in the same setting: the figure for `CCn1ncc(N2CCOCC2)c(Cl)c1=O` is 35.5 µM [rising, single point]; for `O=C(CC1SCCNC1=O)Nc1cccc(Cl)c1` (stereo unspecified) it is 18.4 µM [falling, single point].
As to `COc1cc(/C=N/NC(=O)/C(=C\c2ccc([N+](=O)[O-])cc2)NC(=O)c2ccccc2)cc(OC)c1O`, under setting [1], the AC50 is 2.31 µM [rising, partial curve, poor fit].
For `COc1ccc(C2C(=O)c3ccccc3C2=O)cc1OC`, the AC50 under setting [1] is 11.2 µM [rising, partial curve, poor fit].
As for `COc1nc(N/N=C/c2ccc(-c3ccccc3[N+](=O)[O-])o2)nc(N2CCOCC2)n1`, the AC50 under setting [2] is 23.1 µM [falling, partial curve, poor fit].
As to `COc1ccc2c(c1OC)C(=O)N(c1ccccn1)C2`, the AC50 under setting [1] was 10 µM [falling, partial curve, poor fit].
As to `O=C(NC12CC3CC(CC(C3)C1)C2)c1cc([N+](=O)[O-])ccc1N1CCOCC1`, the AC50 under setting [1] is 0.708 µM [rising, full curve, poor fit].
On the same count and under the same terms, the figure for `COc1ccc(-c2ccc(C#N)c(SCC(=O)NCc3ccco3)n2)cc1OC` is 0.562 µM [rising, full curve]; for `COc1ccccc1-c1cc(C(=O)NC(C)C)no1` it is 2.24 µM [falling, full curve]; for `COc1ccc(CCC(C)N2CCC(CO)(Cc3ccccc3)CC2)cc1` (stereo unspecified) it is 0.316 µM [rising, full curve, poor fit].
The same measure, in the same setting: as for `Cc1noc(C)c1C(=O)Nc1nc2ccc(Cl)cc2s1`, the figure is 7.94 µM [falling, partial curve]; as for `CCC(C)NC(=O)/C=C1\Sc2ccccc2NC1=O` (stereo unspecified), 18.4 µM [falling, single point].
On to `Cc1ccc(NS(=O)(=O)c2ccc(C3CCCCC3)cc2)cc1`, for which the AC50 under setting [1] is 20.6 µM [falling, single point] and the AC50 under setting [2] was 25.9 µM [rising, partial curve, poor fit].
For `CCn1cc(C(=O)OCc2ccccc2)c(=O)c2ccc(C)nc21`, the AC50 under setting [1] was 0.326 µM [falling, full curve, poor fit].
For `COCCCNC(=O)CC(NS(=O)(=O)c1ccc(OC)cc1)c1ccc(OC)cc1` (stereo unspecified), the AC50 under setting [1] is 7.31 µM [rising, partial curve, poor fit].
Turning to `Cc1sc2ncnc(Sc3nnc4sc5ccccc5n34)c2c1C`, under setting [1], the AC50 was 0.731 µM [falling, partial curve, poor fit].
Consider `S=C(Nc1ccc2c(c1)OCO2)NC1CCN(Cc2ccccc2)CC1`, for which the AC50 under setting [1] is 18.4 µM [falling, single point].
The same measure, in the same setting: as for `Cc1ccc(C)c(NC(=O)CN2C(=O)CNC2=O)c1`, the figure is 25.9 µM [falling, single point].
Consider `Cc1c(C(=O)Nc2ccc3c(c2)OCCO3)sc2ncnc(N3CCCCC3C)c12` (stereo unspecified), for which the concentration at half-maximal activity (AC50) under setting [1] was 35.5 µM [falling, single point].
With `COc1cccc(OC)c1C(=O)OCC(=O)/C(C#N)=C(\C)N`, the AC50 under setting [1] is 31.6 µM [rising, single point].
In the case of `O=C1OC(c2ccccc2)/C(=C(/O)c2ccc(Cl)cc2)C1=O` (stereo unspecified), under setting [1], the AC50 is 29.1 µM [falling, single point].
With `O=C(COc1ccc(Br)cc1Br)NC(=S)N1CCCc2ccccc21`, the half-maximal activity concentration (AC50) under setting [1] was 5.8 µM [rising, full curve, poor fit].
For `Cc1ccc(S(=O)(=O)N2CCN(C(=O)Cn3c(=O)oc4ccccc43)CC2)cc1`, under setting [1], the AC50 was 25.9 µM [falling, single point].
In the case of `CCCC(=O)Nc1ccc(S(=O)(=O)N2CCC(c3nc4ccccc4[nH]3)CC2)cc1`, the AC50 under setting [1] is 2.31 µM [rising, partial curve, poor fit].
For the compound `O=[N+]([O-])c1cc(Cl)c(O)c2ncccc12`, the AC50 is 8.91 µM [rising, partial curve, poor fit] under setting [1] and 11.2 µM [falling, partial curve] under setting [2].
On to `CC(C)(C)C(=O)Nc1ccccc1C(=O)Nc1cc(Cl)ccc1Cl`, for which, under setting [1], the AC50 was 14.1 µM [rising, single point].
`Cn1cccc1Cc1nnc(SCC(=O)Nc2ccc(Cl)cc2)n1-c1ccc(F)cc1`: under setting [1], the concentration at half-maximal activity (AC50) was 20.6 µM [falling, partial curve, poor fit].
Consider `O=C(CN1CCC(C(=O)c2ccc3c(c2)OCCO3)CC1)Nc1ccccc1C(F)(F)F`, for which, under setting [1], the AC50 is 6.31 µM [falling, single point].
Take `CCCCN(CC)c1nc(-c2ccncc2)nc2ccccc12`: under setting [1], the AC50 is 8.2 µM [falling, partial curve].
For `Clc1ccc(SCc2csc(N3CCOCC3)n2)cc1`, under setting [1], the AC50 is 2.24 µM [rising, partial curve, poor fit].
With `COc1ccnc(Oc2ccc(F)cc2)c1C(=O)N/C=N/OCc1c(Cl)cccc1Cl`, under setting [1], the AC50 was 20.6 µM [falling, single point].
Take `C/C(=N\N=c1/sc2ccccc2n1C)c1ccccn1`: the AC50 under setting [1] was 20 µM [rising, partial curve, poor fit].
As for `CCOC(=O)C1=CN(Cc2ccco2)S(=O)(=O)N(C)C1c1ccc2ccccc2c1` (stereo unspecified), the AC50 under setting [1] was 29.1 µM [rising, single point].
As for `O=C(COc1cccc2cccnc12)N/N=C/c1cccn1-c1ccc(F)cc1`, the AC50 under setting [1] is 5.62 µM [rising, single point].

The record behind these values is PubChem BioAssay AID493014 (National Center for Advancing Translational Sciences (NCATS), 2011).
